B1: P10639 (protein, UniProt P10639 1-105, looked up)
chain: MVKLIESKEAFQEALAAAGDKLVVVDFSATWCGPCKMIKPFFHSLCDKYSNVVFLEVDVDDCQDVAADCEVKCMPTFQFYKKGQKVGEFSGANKEKLEASITEYA
modifications: full-length
B2: P63038 (protein, UniProt P63038 1-573, looked up)
chain: MLRLPTVLRQMRPVSRALAPHLTRAYAKDVKFGADARALMLQGVDLLADAVAVTMGPKGRTVIIEQSWGSPKVTKDGVTVAKSIDLKDKYKNIGAKLVQDVANNTNEEAGDGTTTATVLARSIAKEGFEKISKGANPVEIRRGVMLAVDAVIAELKKQSKPVTTPEEIAQVATISANGDKDIGNIISDAMKKVGRKGVITVKDGKTLNDELEIIEGMKFDRGYISPYFINTSKGQKCEFQDAYVLLSEKKISSVQSIVPALEIANAHRKPLVIIAEDVDGEALSTLVLNRLKVGLQVVAVKAPGFGDNRKNQLKDMAIATGGAVFGEEGLNLNLEDVQAHDLGKVGEVIVTKDDAMLLKGKGDKAHIEKRIQEITEQLDITTSEYEKEKLNERLAKLSDGVAVLKVGGTSDVEVNEKKDRVTDALNATRAAVEEGIVLGGGCALLRCIPALDSLKPANEDQKIGIEIIKRALKIPAMTIAKNAGVEGSLIVEKILQSSSEVGYDAMLGDFVNMVEKGIIDPTKVVRTALLDAAGVASLLTTAEAVVTEIPKEEKDPGMGAMGGMGGGMGGGMF
modifications: full-length
B3: P21614 (protein, UniProt P21614 1-476, looked up)
chain: MKRVLVLLLALAFGHALERGRDYEKDKVCNELAMLGKEDFRSLSLILYSRKFSSSTFEQVNQLVKEVVSLTEECCAEGADPTCYDTRTSELSVKSCESDAPFPVHPGTPECCTKEGLERKLCMAALSHQPQEFPTYVEPTNDEICEAFRRDPKGFADQFLYEYSSNYGQAPLPLLVAYTKNYLSMVGSCCTSANPTVCFVKERLQMKHLSLLTTMSNRVCSQYAAYGKEKSRLSHLIKLAQKVPTANLENVLPLAEDFTEILSRCCESTSEDCMASELPEHTIKICQNLSKKNSKFEECCQENTPMNIFMCTYFMPAAEPLQLPAIKLPTGKDLCGQSTTQAMDQYTFELSRRTQVPEVFLSKVLEPTLKTLRECCDTQDSVACFSTQSPLLKRQLTSFIEKGQEMCADYSENTFTEYKKKLAERLRTKTPNTSPAELKDMVEKHSDFASKCCSINSPPLYCSSQIDAEMIDTLQS
modifications: full-length

System: CA19-9 modified proteins
Assay: CA19-9 IP/MS (iTRAQ) of organoid conditioned media after Dox treatment
Set-up: species or system mouse
Settings: for 17 0H 5B1 (CA19-9 IP/MS relative abundance) / 17 0H NS19 (CA19-9 IP/MS relative abundance) / 17 8H 5B1 (CA19-9 IP/MS relative abundance) / 17 8H NS19 (CA19-9 IP/MS relative abundance): A217 organoid conditioned media; for 17 0H NS19 (CA19-9 IP/MS relative abundance) / 17 8H NS19 (CA19-9 IP/MS relative abundance) / 20 0H NS19 (CA19-9 IP/MS relative abundance) / 20 8H NS19 (CA19-9 IP/MS relative abundance): NS19-9; for 17 0H NS19 (CA19-9 IP/MS relative abundance): every printed value in this column is 1; for 20 0H 5B1 (CA19-9 IP/MS relative abundance) / 20 0H NS19 (CA19-9 IP/MS relative abundance) / 20 8H 5B1 (CA19-9 IP/MS relative abundance) / 20 8H NS19 (CA19-9 IP/MS relative abundance): A220 organoid conditioned media

| Molecule | 17 0H 5B1 (CA19-9 IP/MS relative abundance) | 17 0H NS19 (CA19-9 IP/MS relative abundance) | 17 8H 5B1 (CA19-9 IP/MS relative abundance) | 17 8H NS19 (CA19-9 IP/MS relative abundance) | 20 0H 5B1 (CA19-9 IP/MS relative abundance) | 20 0H NS19 (CA19-9 IP/MS relative abundance) | 20 8H 5B1 (CA19-9 IP/MS relative abundance) | 20 8H NS19 (CA19-9 IP/MS relative abundance) |
| --- | --- | --- | --- | --- | --- | --- | --- | --- |
| B1 | 1.254 | 1 | 1.833 | 0.442 | 1.19 | 0.368 | 1.885 | 0.353 |
| B2 | 1.687 | 1 | 1.65 | 0.534 | 1.241 | 0.45 | 1.434 | 0.547 |
| B3 | 0.609 | 1 | 0.365 | 0.901 | 0.412 | 0.767 | 0.659 | 0.928 |

— patent US12378320B2, “Methods for treating pancreatitis” (Cold Spring Harbor Laboratory, priority 2018, dated 2025)
